In PubChem BioAssay AID2517 (National Center for Advancing Translational Sciences (NCATS), 2010):
Values joined by “and” are separate entries in the source; they are usually repeats but may differ in a detail not shown here. Equal entries are not always repeated. Hit rate of the full screen: of about 350,000 compounds, about 1,200 (0.34%) were called active. Inconclusive means that the source gave no clear call. Such entries were picked first, then a sample of the others. Calls come from the whole dose curve; as a rule, active = well fitted inhibition curve with a large enough effect; inconclusive = small, poorly fitted or top-dose-only effect; inactive = no such curve, though single readings can be large or run the other way. Potencies beside an inconclusive call are fits to weak or partial responses and may not hold up.

Chains of the proteins cited; added tags and fusions are not shown.
UniProt P27695, whole entry, looked up: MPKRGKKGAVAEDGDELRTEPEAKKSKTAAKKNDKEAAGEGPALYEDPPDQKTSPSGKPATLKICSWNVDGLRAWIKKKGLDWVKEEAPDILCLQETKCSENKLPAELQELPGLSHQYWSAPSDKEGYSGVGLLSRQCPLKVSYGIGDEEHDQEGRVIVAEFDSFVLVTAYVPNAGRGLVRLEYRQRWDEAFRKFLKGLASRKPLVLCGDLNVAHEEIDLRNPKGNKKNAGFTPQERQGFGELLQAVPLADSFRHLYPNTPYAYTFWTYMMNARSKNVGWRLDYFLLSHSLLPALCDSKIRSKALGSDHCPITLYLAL

The compounds below were run against DNA repair nuclease/redox regulator APEX1 (Homo sapiens) (UniProt P27695) (assay: qHTS Assay for Inhibitors of the Human Apurinic/apyrimidinic Endonuclease 1 (APE1)). Conditions: recombinant APE1, TAMRA/BHQ-2 abasic DNA cleavage fluorescence; activity change, negative = inhibition: at 65.8 µM (top of the series).
Procedure, shortened: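 Incision of a quenched TAMRA/BHQ-2 THF abasic-site duplex (50 nM) by 0.75 nM APE1, after 15 min compound preincubation, measured as fluorescence increase over three 60 s reads. Values normalized to buffer, DMSO and NSC13755 control wells.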
Note: nearly all actives have a fitted effect of over 55% in size.
Potency is the fitted concentration of half-maximal effect.
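Throughout, for activity change, negative = inhibition: plate controls were vehicle for no effect and reference inhibitor for full effect.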

SMILES | Potency | activity change, negative = inhibition
O=C(O)c1cccc(S(=O)(=O)Nc2ccccc2N2CCOCC2)c1 | inconclusive: 20 µM [inhibitor, single point] | 
CC(=O)c1coc2ccc(OCC(=O)O)cc12 | inconclusive: 35.5 µM [inhibitor, single point] | 
O=C(O)C1C2C=CC(C2)C1C(=O)NCc1cccs1 (stereo unspecified) | inconclusive: 39.8 µM [inhibitor, single point] | 
COc1ccc(-n2c(O)c(/C=N/NS(=O)(=O)c3ccc(C)c([N+](=O)[O-])c3)c3ccccc3c2=O)cc1OC |  | inactive: -7.75%
CC1(C)CC2CC(C)(CN2c2ncnc3ccccc23)C1 (stereo unspecified) | inconclusive: 0.02 µM [inhibitor, full curve, poor fit] | 
Cc1cc(NS(=O)(=O)c2ccc(NC(=O)c3cc4c(=O)n5ccccc5nc4s3)cc2)nc(C)n1 | inconclusive: 39.8 µM [inhibitor, single point] | 
COc1ccccc1N1CCN(C(C)C(=O)Nc2ccc(S(=O)(=O)N3CCOCC3)cc2)CC1 (stereo unspecified) |  | inactive: 1.77%
CC(=O)OC[C@H]1O[C@@H](O/N=C(\C)CCN2CCCCc3nc(C)c(C)cc32)[C@H](OC(C)=O)[C@@H](OC(C)=O)[C@H]1OC(C)=O | inconclusive: 3.55 µM [inhibitor, single point] | 
CCOc1ccc(OCc2ccc(C(=O)O)o2)cc1 | inconclusive: 35.5 µM [inhibitor, single point] | 
COc1ccc(OC)c(NC(=O)/C=C/c2ccccc2[N+](=O)[O-])c1 | inconclusive: 25.1 µM [inhibitor, partial curve, poor fit] | 
O=C(COc1ccccc1)NCCSCc1ccco1 | inconclusive: 31.6 µM [inhibitor, partial curve] | 
C=CCOc1c(Cl)cc(CNc2ccc(C)c(Cl)c2)cc1OC |  | inactive: -7.45%
COc1ccccc1NC(=O)c1cnc(SCC(=O)NCC2CCCO2)n(C)c1=O (stereo unspecified) |  | inactive: 13.3%
O=C(O)CCCC(=O)N1CCc2cc(S(=O)(=O)N3CCc4ccccc43)ccc21 |  | inactive: -0.723%
COc1cc(/C=N/n2c(C3CCCCC3)n[nH]c2=S)cc(Br)c1O |  | inactive: 3.26%
Cc1cc2c(nc1C)CCCN2C[C@H](O)CN1CCCc2nc(-c3ccc(Br)cc3)ccc21 |  | inactive: -0.38% [at 12.4 µM] and inactive: 38.9% [at 12.4 µM]
CC(C)(C)OC(=O)C[C@H]1C/C=C\C[C@H](CC(=O)N[C@H](CO)Cc2ccccc2)C(=O)N2CCC[C@H]2COC1=O | inconclusive: 21.2 µM [inhibitor, partial curve] | 
COC(=O)CCC(=O)OC1(C)C(=O)C=C2C=C3CCCN3C=C2C1=O (stereo unspecified) | inconclusive: 6.31 µM [inhibitor, full curve, poor fit] | 
COc1cc(NC(=O)COC(=O)CNC(=O)c2cc(C)cc(C)c2)c(C)cc1[N+](=O)[O-] | inconclusive: 35.5 µM [inhibitor, partial curve, poor fit] | 
Cc1ccc(C)c(S(=O)(=O)N/N=C2/CCCc3ccccc32)c1 | inconclusive: 1.58 µM [inhibitor, full curve, poor fit] | 
CC1CCC(NCC(=O)Nc2cccc(S(N)(=O)=O)c2)CC1 (stereo unspecified) |  | inactive: -1.89%
O=C(CSc1ncnc2sc3c(c12)CCCC3)c1ccccc1 |  | inactive: 0.452%

SMILES | Potency | activity change, negative = inhibition
COc1ccc(CN(Cc2cc3cc4c(cc3[nH]c2=O)OCO4)C(=O)NC2CCCCC2)cc1 | inconclusive: 1 µM [inhibitor, full curve, poor fit] | 
CCNc1nc(NC#N)nc(SCC(=O)OCC)n1 | inconclusive: 44.7 µM [inhibitor, single point] | 
Cc1nc(NCc2ccccc2)c2nc(-c3ccccc3)n(CCN3CCOCC3)c2n1 | inconclusive: 39.8 µM [inhibitor, single point] | 
COc1ccc(C)cc1NC(=O)CSc1nnc(CC(=O)Nc2ccccc2F)n1C | inconclusive: 25.1 µM [inhibitor, single point] | 
O=C(O)Cc1ccc(N=Nc2c(O)c(C(=O)O)cc3ccccc23)cc1 | inconclusive: 12.6 µM [inhibitor, partial curve, poor fit] | 
CC(C)COc1ccc(CNC(=S)NCc2ccccc2)cc1 |  | inactive: -5.28%
O=[N+]([O-])c1cc(/C=N/n2c(-c3cccnc3)n[nH]c2=S)ccc1Cl |  | inactive: -0.135%
Cc1ccc(/C=N/n2c(-c3cccnc3)n[nH]c2=S)o1 | inconclusive: 112 µM [inhibitor, partial curve, poor fit] | 
Cc1cccc(C2=NN(c3ccccc3)[C@@H](C(=O)N3CCOC3=O)[C@@H]2c2ccc(Cl)cc2)c1 | inactive and inconclusive: 63.1 nM [inhibitor, full curve, poor fit] | 
CSc1ccc(C(=O)/C=C/c2ccc(N)cc2)cc1 | inconclusive: 0.708 µM [inhibitor, full curve] | 
CS(=O)(=O)N1CC(C(=O)O)Oc2ccc(CC(=O)O)cc21 (stereo unspecified) | inconclusive: 39.8 µM [inhibitor, single point] | 
CCOC(=O)[C@]1(C(NC(=O)OC)c2ccco2)CCCC1=O (stereo partly specified) | inconclusive: 4.47 µM [inhibitor, single point] | 
Cc1cccc(C)c1NS(=O)(=O)c1ccc(NC(=O)c2ccc(Cl)c([N+](=O)[O-])c2)cc1 | inconclusive: 15.8 µM [inhibitor, single point] | 
O=C1[C@@H]2[C@H]3[C@H](O)[C@H](O)C/C(=N/OC[C@@H](O)COCc4ccco4)[C@@H]3CC[C@H]2C(=O)N1c1ccc(F)cc1F | inconclusive: 3.55 µM [inhibitor, single point] | 
CC(C)(C)C(=O)O/N=C(\N)c1ccc(-c2csnn2)cc1 | inconclusive: 3.55 µM [inhibitor, single point] | 
O=C(NCc1ccco1)c1cnc2ccccn2c1=O |  | inactive: 1.46%
COc1ccccc1NS(=O)(=O)c1cc(NC(=O)CNC(=O)c2cc(C)cc(C)c2)ccc1C |  | inactive: 13.8%
CCCN(CCC)CCOc1cc(C)ccc1C(C)C | inconclusive: 0.199 µM [inhibitor, full curve, poor fit] | 
Cc1cc(C)cc(NC(=O)Cn2nnc(C(=O)NCc3ccc4c(c3)OCO4)c2N)c1 |  | inactive: 15.8%
CCCCc1nc2c(c3c1C[C@H](C)OC3)CN(C(=O)Nc1cccc(C#N)c1)CC2 |  | inactive: -1.97% [at 12.4 µM]
CCOC(=O)Cc1csc(SCC(=O)Nc2sc3c(c2C(N)=O)CCC3)n1 | inconclusive: 25.1 µM [inhibitor, partial curve] | 
O=C(NNC(=O)c1cccnc1)NC1CCCCC1 |  | inactive: -2.72%

SMILES | Potency | activity change, negative = inhibition
O=C(Nc1sc2c(c1C(=O)NCc1ccco1)CCCC2)c1ccc2c(c1)OCO2 | inconclusive: 35.5 µM [inhibitor, single point] | 
CCCN(CC1CC1)C(=S)NC(=O)C1CC1 | inconclusive: 7.94 µM [inhibitor, single point] | 
CCCCCCCCCC(=O)N[C@H](CN1CCOCC1)[C@H](O)c1ccccc1 | inconclusive: 39.8 µM [inhibitor, single point] | 
CCOc1ccc(C(C)NC(=S)NC2CCCCC2)cc1OCC (stereo unspecified) | inconclusive: 7.08 µM [inhibitor, partial curve, poor fit] | 
O=S(Cc1ccc(Br)cc1)Cc1nnc(SCc2ccc(Br)cc2)n1-c1ccccc1 (stereo unspecified) | inconclusive: 14.1 µM [inhibitor, partial curve, poor fit] | 
Cc1c(-c2ccc(O)cc2)nn(-c2ccc(O)cc2)c1-c1ccc(OCCN2CCCCC2)cc1 | inconclusive: 50.1 µM [inhibitor, partial curve] | 
O=C(O)CSc1ccc(NC(=O)Nc2ccccc2F)cc1 |  | inactive: -0.354%
CCCCC(=O)NC(=S)Nc1cc(C(=O)O)ccc1Cl |  | inactive: 1.97%
COc1ccc(-c2cc(=O)c3cc(C)ccc3[nH]2)cc1 | inactive and inconclusive: 3.55 µM [inhibitor, single point] | 
Cc1ccc(NC(=O)CSc2nnc(-c3ccco3)c(-c3ccco3)n2)cc1 | inconclusive: 31.6 µM [inhibitor, single point] | 
CCOC(=O)c1c(C)noc1-c1ccc(Br)o1 | inconclusive: 0.01 µM [inhibitor, full curve, poor fit] | 
Cc1ccc(C)n1-c1c(C(=O)NN)cnn1-c1ccccc1 | inconclusive: 10 µM [inhibitor, single point] | 
CCOc1ccc(/C=N/Nc2nc(=O)[nH]nc2C)cc1OC | inconclusive: 35.5 µM [inhibitor, single point] | 
Nc1c(-c2ccc(Cl)cc2)cnn1-c1cccc([N+](=O)[O-])c1 | inconclusive: 44.7 µM [inhibitor, partial curve, poor fit] | 
CCn1c(=O)[nH]c2cc(Cl)c(Cl)cc21 | inconclusive: 44.7 µM [inhibitor, single point] | 
N=C1/C(=C\c2coc3ccccc3c2=O)C(=O)N=C2SC(c3ccncc3)=NN12 |  | inactive: -3.17%
CCOC(=O)C1=C(O)/C(=C/c2ccccn2)SC1=Nc1ccc(Cl)cc1 |  | inactive: -0.489%
COc1ccc(OC)c(C(=O)COC(=O)c2cccnc2Cl)c1 |  | inactive: -9.23%
Cc1ccc(S(=O)(=O)Nc2cc(-c3ccccc3)nn2C)cc1 | inconclusive: 4.47 µM [inhibitor, single point] | 
Cc1nc(NCCc2ccccc2)c(C#N)c(C)c1[N+](=O)[O-] | inconclusive: 0.199 µM [inhibitor, full curve, poor fit] | 
COc1ccccc1CNc1ncncc1-c1ccccc1C(F)(F)F |  | inactive: -1.23%
CCC(SC1=NCCS1)C(=O)Nc1ccc(S(N)(=O)=O)cc1 (stereo unspecified) | inconclusive: 3.55 µM [inhibitor, single point] | 

A second format for 3 compounds above.
SMILES	Potency	activity change, negative = inhibition
Cc1ccc(NC(=O)CSc2nnc(-c3ccco3)c(-c3ccco3)n2)cc1	inconclusive: 31.6 µM [inhibitor, single point]	
CCOC(=O)c1c(C)noc1-c1ccc(Br)o1	inconclusive: 0.01 µM [inhibitor, full curve, poor fit]	
Cc1ccc(C)n1-c1c(C(=O)NN)cnn1-c1ccccc1	inconclusive: 10 µM [inhibitor, single point]	
